Measured values from the supplement of paper PMC4604168 (melanoma cell lines).
The list shows a part of the results. Single values are uncertain, as repeats are few or missing.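 The apoptosis fraction was the count of cleaved-PARP antibody-stained nuclei relative to all DNA-stained nuclei, imaged in 1,536-well plates. Screening doses were set so most cells survived, and baseline and induced cleaved-PARP levels vary greatly across cell lines.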

How the values were obtained:
Assay in all cases: cleaved PARP positive nuclei fraction relative to DMSO control; melanoma cells; higher = more apoptosis
Conditions in all cases: library dose: low library concentration; 72 h
501Mel = tested on: 501Mel
A101D = tested on: A101D
A2058 = tested on: A2058
A375 = tested on: A375
C32 = tested on: C32
CBRC008 = tested on: CBRC008 (line from a melanoma biopsy)
CBRC013 = tested on: CBRC013 (line from a melanoma biopsy)
CBRC014 = tested on: CBRC014 (line from a melanoma biopsy)
CBRC016 = tested on: CBRC016 (line from a melanoma biopsy)
CBRC017 = tested on: CBRC017 (line from a melanoma biopsy)
COLO792 = tested on: COLO792
COLO800 = tested on: COLO800
COLO829 = tested on: COLO829
G361 = tested on: G361
IPC-298 = tested on: IPC-298
IST-MEL1 = tested on: IST-MEL1
LB2518-MEL = tested on: LB2518-MEL
LOXIMVI = tested on: LOXIMVI
MEL-HO = tested on: MEL-HO

| SMILES | cleaved PARP positive nuclei fraction (501Mel) [%] | cleaved PARP positive nuclei fraction (A101D) [%] | cleaved PARP positive nuclei fraction (A2058) [%] | cleaved PARP positive nuclei fraction (A375) [%] | cleaved PARP positive nuclei fraction (C32) [%] | cleaved PARP positive nuclei fraction (CBRC008) [%] | cleaved PARP positive nuclei fraction (CBRC013) [%] | cleaved PARP positive nuclei fraction (CBRC014) [%] | cleaved PARP positive nuclei fraction (CBRC016) [%] | cleaved PARP positive nuclei fraction (CBRC017) [%] | cleaved PARP positive nuclei fraction (COLO792) [%] | cleaved PARP positive nuclei fraction (COLO800) [%] | cleaved PARP positive nuclei fraction (COLO829) [%] | cleaved PARP positive nuclei fraction (G361) [%] | cleaved PARP positive nuclei fraction (IPC-298) [%] | cleaved PARP positive nuclei fraction (IST-MEL1) [%] | cleaved PARP positive nuclei fraction (LB2518-MEL) [%] | cleaved PARP positive nuclei fraction (LOXIMVI) [%] | cleaved PARP positive nuclei fraction (MEL-HO) [%] |
| --- | --- | --- | --- | --- | --- | --- | --- | --- | --- | --- | --- | --- | --- | --- | --- | --- | --- | --- | --- |
| Nc1ccn([C@@H]2O[C@H](CO)[C@@H](O)C2(F)F)c(=O)n1 [gemcitabine] + CC(C)(C)c1cnc(CSc2cnc(NC(=O)C3CCNCC3)s2)o1 [SNS-032] (first compound 0.0004 µM, partner dose 0.01 µM) | 74.2 | 165 | 113 | 71.4 | 181 | 289 | 122 | 141 | 127 | 119 | 121 | 303 | 157 | 166 | 95.9 | 92.5 | 112 | 29.6 | 185 |
| Nc1nc(F)nc2c1ncn2[C@@H]1O[C@H](CO)[C@@H](O)[C@@H]1O [fludarabine] + NC(=O)Nc1cc(-c2cccc(F)c2)sc1C(=O)N[C@H]1CCCNC1 [AZD7762] (first compound 0.2 µM, partner dose 0.02 µM) | 1470 | 209 | 140 | 10700 | 124 | 54.2 | 504 | 86.9 | 87.9 | 212 | 165 | 65.4 | 98.5 | 81.3 | 93.8 | 231 | 187 | 277 | 76.9 |
| CO[C@H]1C[C@@H]2CC[C@@H](C)[C@@](O)(O2)C(=O)C(=O)N2CCCC[C@H]2C(=O)O[C@H]([C@H](C)C[C@@H]2CC[C@@H](OCCO)[C@H](OC)C2)CC(=O)[C@H](C)/C=C(\C)[C@@H](O)[C@@H](OC)C(=O)[C@H](C)C[C@H](C)/C=C/C=C/C=C/1C [everolimus] + COc1cc2c(Oc3ccc4[nH]c(C)cc4c3F)ncnc2cc1OCCCN1CCCC1 [cediranib] (first compound 0.02 µM, partner dose 0.4 µM) | 303 | 157 | 163 | 253 | 40.5 | 133 | 76.3 | 90.3 | 41.5 | 129 | 126 | 164 | 175 | 107 | 143 | 72 | 71.3 | 139 | 90.1 |
| O=C(O)c1ccc2c(c1)nc(Nc1cccc(Cl)c1)c1ccncc12 + C[C@@H]1CCN(C(=O)CC#N)C[C@@H]1N(C)c1ncnc2[nH]ccc12 [CP690550] (first compound 0.4 µM, partner dose 1 µM) | 42.2 | 75.6 | 149 | 42.1 | 49.7 | 53.6 | 109 | 159 | 235 | 183 | 146 | 54.7 | 91.6 | 34.7 | 47 | 130 | 95.1 | 133 | 35.2 |
| Cn1c(=O)n(-c2ccc(C(C)(C)C#N)cc2)c2c3cc(-c4cnc5ccccc5c4)ccc3ncc21 + CO[C@@H]1[C@H](N(C)C(=O)c2ccccc2)C[C@H]2O[C@]1(C)n1c3ccccc3c3c4c(c5c6ccccc6n2c5c31)C(=O)NC4 [Midostaurin] (first compound 0.004 µM, partner dose 0.08 µM) | 73 | 106 | 126 | 79.2 | 25.3 | 87.5 | 65.1 | 76.3 | 30.1 | 79.2 | 130 | 211 | 124 | 294 | 25.4 | 209 | 140 | 163 | 87.2 |
| CNC(=O)c1cc(Oc2ccc(NC(=O)Nc3ccc(Cl)c(C(F)(F)F)c3)cc2)ccn1 [sorafenib] + CN(C)S(=O)(=O)c1ccc2c(c1)/C(=C/c1cc3c([nH]1)CCCC3)C(=O)N2 [SU6656] (first compound 0.4 µM, partner dose 0.4 µM) | 110 | 90.2 | 28.7 | 148 | 77.4 | 174 | 72.7 | 93.7 | 29.5 | 88.8 | 37 | 56.4 | 205 | 52.7 | 91.5 | 99 | 57 | 124 | 79.9 |
| O=C(O)[C@@H]1[O][Sb](=[O])([O][Sb]2(=[O])[O][C@H]([C@H](O)CO)[C@H](O)[C@H](C(=O)O)[O]2)[O][C@H]([C@H](O)CO)[C@@H]1O (some centres undefined) [stibogluconate] + CO[C@@H]1[C@H](N(C)C(=O)c2ccccc2)C[C@H]2O[C@]1(C)n1c3ccccc3c3c4c(c5c6ccccc6n2c5c31)C(=O)NC4 [Midostaurin] (first compound 2 µM, partner dose 0.08 µM) | 90.3 | 167 | 86.3 | 104 | 185 | 219 | 141 | 90.7 | 126 | 92.7 | 116 | 58.6 | 140 | 109 | 143 | 201 | 95.5 | 247 | 38.9 |
| CO[C@H]1C[C@@H]2CC[C@@H](C)[C@@](O)(O2)C(=O)C(=O)N2CCCC[C@H]2C(=O)O[C@H]([C@H](C)C[C@@H]2CC[C@@H](OCCO)[C@H](OC)C2)CC(=O)[C@H](C)/C=C(\C)[C@@H](O)[C@@H](OC)C(=O)[C@H](C)C[C@H](C)/C=C/C=C/C=C/1C [everolimus] + NCC(=O)Nc1ccc(-n2nc(C(F)(F)F)cc2-c2ccc3c(ccc4ccccc43)c2)cc1 [OSU03012] (first compound 0.02 µM, partner dose 1 µM) | 867 | 111 | 154 | 3320 | 46.5 | 119 | 128 | 82 | 90.1 | 130 | 52.1 | 136 | 104 | 208 | 109 | 247 | 106 | 241 | 48.8 |
| Nc1ccn([C@@H]2O[C@H](CO)[C@@H](O)C2(F)F)c(=O)n1 [gemcitabine] + Cn1cncc1[C@@](N)(c1ccc(Cl)cc1)c1ccc2c(c1)c(-c1cccc(Cl)c1)cc(=O)n2C [tipifarnib] (first compound 0.0004 µM, partner dose 0.01 µM) | 84.7 | 76.5 | 81.6 | 72.2 | 148 | 308 | 122 | 192 | 158 | 142 | 63.9 | 107 | 232 | 132 | 52.5 | 126 | 52 | 170 | 84.1 |
| Nc1ccn([C@@H]2O[C@H](CO)[C@@H](O)C2(F)F)c(=O)n1 [gemcitabine] + COc1cc(Nc2ncc(F)c(Nc3ccc4c(n3)NC(=O)C(C)(C)O4)n2)cc(OC)c1OC [Tamatinib] (first compound 0.0004 µM, partner dose 0.4 µM) | 82.8 | 136 | 54.7 | 406 | 142 | 366 | 119 | 125 | 61.5 | 105 | 176 | 116 | 106 | 112 | 323 | 45.9 | 56.3 | 230 | 84.5 |
| CCCS(=O)(=O)Nc1ccc(F)c(C(=O)c2c[nH]c3ncc(Cl)cc23)c1F + CO[C@@H]1[C@H](N(C)C(=O)c2ccccc2)C[C@H]2O[C@]1(C)n1c3ccccc3c3c4c(c5c6ccccc6n2c5c31)C(=O)NC4 [Midostaurin] (first compound 0.08 µM, partner dose 0.08 µM) | 131 | 149 | 185 | 156 | 120 | 146 | 178 | 32.1 | 221 | 84.9 | 165 | 232 | 74.1 | 101 | 95.3 | 75.9 | 31.2 | 76.4 | 200 |
| C=C(c1ccc(C(=O)O)cc1)c1cc2c(cc1C)C(C)(C)CCC2(C)C [Bexarotene] + O=C(Nc1cccc(Cl)c1)Nc1ncc(CCNc2ncnc3ccsc23)s1 [SNS314] (first compound 2 µM, partner dose 0.0008 µM) | 99.1 | 159 | 71.9 | 103 | 72.1 | 184 | 116 | 110 | 64 | 114 | 90.2 | 69.3 | 163 | 58.2 | 48.4 | 116 | 53.4 | 68 | 33.5 |
| C[C@@H](Oc1cc(-c2cnn(C3CCNCC3)c2)cnc1N)c1c(Cl)ccc(F)c1Cl [Crizotinib] + Cc1cc(N2CCOCC2)cc2[nH]c(-c3c(NC[C@@H](O)c4cccc(Cl)c4)cc[nH]c3=O)nc12 [BMS536924] (first compound 0.2 µM, partner dose 0.2 µM) | 203 | 41.7 | 112 | 166 | 138 | 290 | 165 | 86.5 | 74 | 101 | 24.9 | 69.9 | 153 | 186 | 46.8 | 67.3 | 112 | 83.8 | 155 |
| CNC(=O)c1cc(Oc2ccc(NC(=O)Nc3ccc(Cl)c(C(F)(F)F)c3)cc2)ccn1 [sorafenib] + Cc1ccc(NC(=O)c2cccc(N(C)C)c2)cc1NC(=O)c1ccc(O)cc1 [ZM336372] (first compound 0.4 µM, partner dose 2 µM) | 181 | 87 | 86.8 | 48.1 | 131 | 116 | 73.3 | 77.2 | 73.5 | 107 | 54.9 | 61.2 | 92.2 | 74 | 184 | 1330 | 86.3 | 18.7 | 66.4 |
| O=C(O)[C@@H]1[O][Sb](=[O])([O][Sb]2(=[O])[O][C@H]([C@H](O)CO)[C@H](O)[C@H](C(=O)O)[O]2)[O][C@H]([C@H](O)CO)[C@@H]1O (some centres undefined) [stibogluconate] + OCCn1cc(-c2cnc3nnn(Cc4ccc5ncccc5c4)c3n2)cn1 [PF04217903] (first compound 2 µM, partner dose 1 µM) | 81.8 | 95.9 | 19.4 | 79.4 | 141 | 148 | 104 | 73.5 | 98 | 84.3 | 50.4 | 108 | 160 | 107 | 139 | 205 | 59.3 | 135 | 35.4 |
| C=C(c1ccc(C(=O)O)cc1)c1cc2c(cc1C)C(C)(C)CCC2(C)C [Bexarotene] + CC(C)(C)c1cnc(CSc2cnc(NC(=O)C3CCNCC3)s2)o1 [SNS-032] (first compound 2 µM, partner dose 0.01 µM) | 93.2 | 35.8 | 52.9 | 99.6 | 127 | 61.1 | 113 | 95.5 | 167 | 99.6 | 112 | 62.1 | 160 | 94.1 | 58.5 | 53.8 | 96.8 | 52.3 | 75.7 |

Part of the list above, with bars between the fields.
SMILES | cleaved PARP positive nuclei fraction (501Mel) [%] | cleaved PARP positive nuclei fraction (A101D) [%] | cleaved PARP positive nuclei fraction (A2058) [%] | cleaved PARP positive nuclei fraction (A375) [%] | cleaved PARP positive nuclei fraction (C32) [%] | cleaved PARP positive nuclei fraction (CBRC008) [%] | cleaved PARP positive nuclei fraction (CBRC013) [%] | cleaved PARP positive nuclei fraction (CBRC014) [%] | cleaved PARP positive nuclei fraction (CBRC016) [%] | cleaved PARP positive nuclei fraction (CBRC017) [%] | cleaved PARP positive nuclei fraction (COLO792) [%] | cleaved PARP positive nuclei fraction (COLO800) [%] | cleaved PARP positive nuclei fraction (COLO829) [%] | cleaved PARP positive nuclei fraction (G361) [%] | cleaved PARP positive nuclei fraction (IPC-298) [%] | cleaved PARP positive nuclei fraction (IST-MEL1) [%] | cleaved PARP positive nuclei fraction (LB2518-MEL) [%] | cleaved PARP positive nuclei fraction (LOXIMVI) [%] | cleaved PARP positive nuclei fraction (MEL-HO) [%]
Nc1nc(F)nc2c1ncn2[C@@H]1O[C@H](CO)[C@@H](O)[C@@H]1O [fludarabine] + NC(=O)Nc1cc(-c2cccc(F)c2)sc1C(=O)N[C@H]1CCCNC1 [AZD7762] (first compound 0.2 µM, partner dose 0.02 µM) | 1470 | 209 | 140 | 10700 | 124 | 54.2 | 504 | 86.9 | 87.9 | 212 | 165 | 65.4 | 98.5 | 81.3 | 93.8 | 231 | 187 | 277 | 76.9
CO[C@H]1C[C@@H]2CC[C@@H](C)[C@@](O)(O2)C(=O)C(=O)N2CCCC[C@H]2C(=O)O[C@H]([C@H](C)C[C@@H]2CC[C@@H](OCCO)[C@H](OC)C2)CC(=O)[C@H](C)/C=C(\C)[C@@H](O)[C@@H](OC)C(=O)[C@H](C)C[C@H](C)/C=C/C=C/C=C/1C [everolimus] + COc1cc2c(Oc3ccc4[nH]c(C)cc4c3F)ncnc2cc1OCCCN1CCCC1 [cediranib] (first compound 0.02 µM, partner dose 0.4 µM) | 303 | 157 | 163 | 253 | 40.5 | 133 | 76.3 | 90.3 | 41.5 | 129 | 126 | 164 | 175 | 107 | 143 | 72 | 71.3 | 139 | 90.1
